Results are given in words; binding and its absence hold for the method and conditions named. Binding seen in cells or lysates may run through a third protein. Here binding means that the protein was enriched with, or labelled near, the bait; the list need not be complete.
B1: WAPL (protein, UniProt Q7Z5K2 1-1190)
chain: MTSRFGKTYSRKGGNGSSKFDEVFSNKRTTLSTKWGETTFMAKLGQKRPNFKPDIQEIPKKPKVEEESTGDPFGFDSDDESLPVSSKNLAQVKCSSYSESSEAAQLEEVTSVLEANSKISHVVVEDTVVSDKCFPLEDTLLGKEKSTNRIVEDDASISSCNKLITSDKVENFHEEHEKNSHHIHKNADDSTKKPNAETTVASEIKETNDTWNSQFGKRPESPSEISPIKGSVRTGLFEWDNDFEDIRSEDCILSLDSDPLLEMKDDDFKNRLENLNEAIEEDIVQSVLRPTNCRTYCRANKTKSSQGASNFDKLMDGTSQALAKANSESSKDGLNQAKKGGVSCGTSFRGTVGRTRDYTVLHPSCLSVCNVTIQDTMERSMDEFTASTPADLGEAGRLRKKADIATSKTTTRFRPSNTKSKKDVKLEFFGFEDHETGGDEGGSGSSNYKIKYFGFDDLSESEDDEDDDCQVERKTSKKRTKTAPSPSLQPPPESNDNSQDSQSGTNNAENLDFTEDLPGVPESVKKPINKQGDKSKENTRKIFSGPKRSPTKAVYNARHWNHPDSEELPGPPVVKPQSVTVRLSSKEPNQKDDGVFKAPAPPSKVIKTVTIPTQPYQDIVTALKCRREDKELYTVVQHVKHFNDVVEFGENQEFTDDIEYLLSGLKSTQPLNTRCLSVISLATKCAMPSFRMHLRAHGMVAMVFKTLDDSQHHQNLSLCTAALMYILSRDRLNMDLDRASLDLMIRLLELEQDASSAKLLNEKDMNKIKEKIRRLCETVHNKHLDLENITTGHLAMETLLSLTSKRAGDWFKEELRLLGGLDHIVDKVKECVDHLSRDEDEEKLVASLWGAERCLRVLESVTVHNPENQSYLIAYKDSQLIVSSAKALQHCEELIQQYNRAEDSICLADSKPLPHQNVTNHVGKAVEDCMRAIIGVLLNLTNDNEWGSTKTGEQDGLIGTALNCVLQVPKYLPQEQRFDIRVLGLGLLINLVEYSARNRHCLVNMETSCSFDSSICSGEGDDSLRIGGQVHAVQALVQLFLERERAAQLAESKTDELIKDAPTTQHDKSGEWQETSGEIQWVSTEKTDGTEEKHKKEEEDEELDLNKALQHAGKHMEDCIVASYTALLLGCLCQESPINVTTVREYLPEGDFSIMTEMLKKFLSFMNLTCAVGTTGQKSISRVIEYLEHC
B2: SNW1 (protein, UniProt Q13573 1-536)
chain: MALTSFLPAPTQLSQDQLEAEEKARSQRSRQTSLVSSRREPPPYGYRKGWIPRLLEDFGDGGAFPEIHVAQYPLDMGRKKKMSNALAIQVDSEGKIKYDAIARQGQSKDKVIYSKYTDLVPKEVMNADDPDLQRPDEEAIKEITEKTRVALEKSVSQKVAAAMPVRAADKLAPAQYIRYTPSQQGVAFNSGAKQRVIRMVEMQKDPMEPPRFKINKKIPRGPPSPPAPVMHSPSRKMTVKEQQEWKIPPCISNWKNAKGYTIPLDKRLAADGRGLQTVHINENFAKLAEALYIADRKAREAVEMRAQVERKMAQKEKEKHEEKLREMAQKARERRAGIKTHVEKEDGEARERDEIRHDRRKERQHDRNLSRAAPDKRSKLQRNENRDISEVIALGVPNPRTSNEVQYDQRLFNQSKGMDSGFAGGEDEIYNVYDQAWRGGKDMAQSIYRPSKNLDKDMYGDDLEARIKTNRFVPDKEFSGSDRRQRGREGPVQFEEDPFGLDKFLEEAKQHGGSKRPSDSSRPKEHEHEGKKRRKE
B3: CALD1 (protein, UniProt Q05682 1-793)
chain: MDDFERRRELRRQKREEMRLEAERIAYQRNDDDEEEAARERRRRARQERLRQKQEEESLGQVTDQVEVNAQNSVPDEEAKTTTTNTQVEGDDEAAFLERLARREERRQKRLQEALERQKEFDPTITDASLSLPSRRMQNDTAENETTEKEEKSESRQERYEIEETETVTKSYQKNDWRDAEENKKEDKEKEEEEEEKPKRGSIGENQVEVMVEEKTTESQEETVVMSLKNGQISSEEPKQEEEREQGSDEISHHEKMEEEDKERAEAERARLEAEERERIKAEQDKKIADERARIEAEEKAAAQERERREAEERERMREEEKRAAEERQRIKEEEKRAAEERQRIKEEEKRAAEERQRIKEEEKRAAEERQRARAEEEEKAKVEEQKRNKQLEEKKHAMQETKIKGEKVEQKIEGKWVNEKKAQEDKLQTAVLKKQGEEKGTKVQAKREKLQEDKPTFKKEEIKDEKIKKDKEPKEEVKSFMDRKKGFTEVKSQNGEFMTHKLKHTENTFSRPGGRASVDTKEAEGAPQVEAGKRLEELRRRRGETESEEFEKLKQKQQEAALELEELKKKREERRKVLEEEEQRRKQEEADRKLREEEEKRRLKEEIERRRAEAAEKRQKMPEDGLSDDKKPFKCFTPKGSSLKIEERAEFLNKSVQKSSGVKSTHQAAIVSKIDSRLEQYTSAIEGTKSAKPTKPAASDLPVPAEGVRNIKSMWEKGNVFSSPTAAGTPNKETAGLKVGVSSRINEWLTKTPDGNKSPAPKPSDLRPGDVSSKRNLWEKQSVDKVTSPTKV
B4: GOLGA5 (protein, UniProt Q8TBA6 1-731)
chain: MSWFVDLAGKAEDLLNRVDQGAATALSRKDNASNIYSKNTDYTELHQQNTDLIYQTGPKSTYISSAADNIRNQKATILAGTANVKVGSRTPVEASHPVENASVPRPSSHFVRRKKSEPDDELLFDFLNSSQKEPTGRVEIRKEKGKTPVFQSSQTSSVSSVNPSVTTIKTIEENSFGSQTHEAASNSDSSHEGQEESSKENVSSNAACPDHTPTPNDDGKSHELSNLRLENQLLRNEVQSLNQEMASLLQRSKETQEELNKARARVEKWNADHSKSDRMTRGLRAQVDDLTEAVAAKDSQLAVLKVRLQEADQLLSTRTEALEALQSEKSRIMQDQSEGNSLQNQALQTFQERLHEADATLKREQESYKQMQSEFAARLNKVEMERQNLAEAITLAERKYSDEKKRVDELQQQVKLYKLNLESSKQELIDYKQKATRILQSKEKLINSLKEGSGFEGLDSSTASSMELEELRHEKEMQREEIQKLMGQIHQLRSELQDMEAQQVNEAESAREQLQDLHDQIAGQKASKQELETELERLKQEFHYIEEDLYRTKNTLQSRIKDRDEEIQKLRNQLTNKTLSNSSQSELENRLHQLTETLIQKQTMLESLSTEKNSLVFQLERLEQQMNSASGSSSNGSSINMSGIDNGEGTRLRNVPVLFNDTETNLAGMYGKVRKAASSIDQFSIRLGIFLRRYPIARVFVIIYMALLHLWVMIVLLTYTPEMHHDQPYGK
B5: SALL2 (protein, UniProt Q9Y467 1-1007)
chain: MSRRKQRKPQQLISDCEGPSASENGDASEEDHPQVCAKCCAQFTDPTEFLAHQNACSTDPPVMVIIGGQENPNNSSASSEPRPEGHNNPQVMDTEHSNPPDSGSSVPTDPTWGPERRGEESSGHFLVAATGTAAGGGGGLILASPKLGATPLPPESTPAPPPPPPPPPPPGVGSGHLNIPLILEELRVLQQRQIHQMQMTEQICRQVLLLGSLGQTVGAPASPSELPGTGTASSTKPLLPLFSPIKPVQTSKTLASSSSSSSSSSGAETPKQAFFHLYHPLGSQHPFSAGGVGRSHKPTPAPSPALPGSTDQLIASPHLAFPSTTGLLAAQCLGAARGLEATASPGLLKPKNGSGELSYGEVMGPLEKPGGRHKCRFCAKVFGSDSALQIHLRSHTGERPYKCNVCGNRFTTRGNLKVHFHRHREKYPHVQMNPHPVPEHLDYVITSSGLPYGMSVPPEKAEEEAATPGGGVERKPLVASTTALSATESLTLLSTSAGTATAPGLPAFNKFVLMKAVEPKNKADENTPPGSEGSAISGVAESSTATRMQLSKLVTSLPSWALLTNHFKSTGSFPFPYVLEPLGASPSETSKLQQLVEKIDRQGAVAVTSAASGAPTTSAPAPSSSASSGPNQCVICLRVLSCPRALRLHYGQHGGERPFKCKVCGRAFSTRGNLRAHFVGHKASPAARAQNSCPICQKKFTNAVTLQQHVRMHLGGQIPNGGTALPEGGGAAQENGSEQSTVSGARSFPQQQSQQPSPEEELSEEEEEEDEEEEEDVTDEDSLAGRGSESGGEKAISVRGDSEEASGAEEEVGTVAAAATAGKEMDSNEKTTQQSSLPPPPPPDSLDQPQPMEQGSSGVLGGKEEGGKPERSSSPASALTPEGEATSVTLVEELSLQEAMRKEPGESSSRKACEVCGQAFPSQAALEEHQKTHPKEGPLFTCVFCRQGFLERATLKKHMLLAHHQVQPFAPHGPQNIAALSLVPGCSPSITSTGLSPFPRKDDPTIP

Protein sequences, listed by entry. Tags and fused reporters are not part of them.
UniProt P46937: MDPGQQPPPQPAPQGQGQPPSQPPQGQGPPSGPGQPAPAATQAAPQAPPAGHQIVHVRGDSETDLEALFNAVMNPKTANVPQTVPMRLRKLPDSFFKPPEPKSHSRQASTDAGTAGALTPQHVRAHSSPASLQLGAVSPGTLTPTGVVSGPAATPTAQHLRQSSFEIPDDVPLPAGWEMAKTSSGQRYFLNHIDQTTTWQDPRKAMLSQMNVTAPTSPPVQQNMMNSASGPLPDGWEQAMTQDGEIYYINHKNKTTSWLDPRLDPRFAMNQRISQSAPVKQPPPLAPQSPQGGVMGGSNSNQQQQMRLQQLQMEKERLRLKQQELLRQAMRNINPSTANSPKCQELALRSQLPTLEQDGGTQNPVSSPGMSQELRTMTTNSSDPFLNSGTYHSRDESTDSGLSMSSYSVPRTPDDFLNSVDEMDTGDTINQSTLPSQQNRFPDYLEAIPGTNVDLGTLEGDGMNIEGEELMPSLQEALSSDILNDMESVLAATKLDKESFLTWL
UniProt Q2KHR3: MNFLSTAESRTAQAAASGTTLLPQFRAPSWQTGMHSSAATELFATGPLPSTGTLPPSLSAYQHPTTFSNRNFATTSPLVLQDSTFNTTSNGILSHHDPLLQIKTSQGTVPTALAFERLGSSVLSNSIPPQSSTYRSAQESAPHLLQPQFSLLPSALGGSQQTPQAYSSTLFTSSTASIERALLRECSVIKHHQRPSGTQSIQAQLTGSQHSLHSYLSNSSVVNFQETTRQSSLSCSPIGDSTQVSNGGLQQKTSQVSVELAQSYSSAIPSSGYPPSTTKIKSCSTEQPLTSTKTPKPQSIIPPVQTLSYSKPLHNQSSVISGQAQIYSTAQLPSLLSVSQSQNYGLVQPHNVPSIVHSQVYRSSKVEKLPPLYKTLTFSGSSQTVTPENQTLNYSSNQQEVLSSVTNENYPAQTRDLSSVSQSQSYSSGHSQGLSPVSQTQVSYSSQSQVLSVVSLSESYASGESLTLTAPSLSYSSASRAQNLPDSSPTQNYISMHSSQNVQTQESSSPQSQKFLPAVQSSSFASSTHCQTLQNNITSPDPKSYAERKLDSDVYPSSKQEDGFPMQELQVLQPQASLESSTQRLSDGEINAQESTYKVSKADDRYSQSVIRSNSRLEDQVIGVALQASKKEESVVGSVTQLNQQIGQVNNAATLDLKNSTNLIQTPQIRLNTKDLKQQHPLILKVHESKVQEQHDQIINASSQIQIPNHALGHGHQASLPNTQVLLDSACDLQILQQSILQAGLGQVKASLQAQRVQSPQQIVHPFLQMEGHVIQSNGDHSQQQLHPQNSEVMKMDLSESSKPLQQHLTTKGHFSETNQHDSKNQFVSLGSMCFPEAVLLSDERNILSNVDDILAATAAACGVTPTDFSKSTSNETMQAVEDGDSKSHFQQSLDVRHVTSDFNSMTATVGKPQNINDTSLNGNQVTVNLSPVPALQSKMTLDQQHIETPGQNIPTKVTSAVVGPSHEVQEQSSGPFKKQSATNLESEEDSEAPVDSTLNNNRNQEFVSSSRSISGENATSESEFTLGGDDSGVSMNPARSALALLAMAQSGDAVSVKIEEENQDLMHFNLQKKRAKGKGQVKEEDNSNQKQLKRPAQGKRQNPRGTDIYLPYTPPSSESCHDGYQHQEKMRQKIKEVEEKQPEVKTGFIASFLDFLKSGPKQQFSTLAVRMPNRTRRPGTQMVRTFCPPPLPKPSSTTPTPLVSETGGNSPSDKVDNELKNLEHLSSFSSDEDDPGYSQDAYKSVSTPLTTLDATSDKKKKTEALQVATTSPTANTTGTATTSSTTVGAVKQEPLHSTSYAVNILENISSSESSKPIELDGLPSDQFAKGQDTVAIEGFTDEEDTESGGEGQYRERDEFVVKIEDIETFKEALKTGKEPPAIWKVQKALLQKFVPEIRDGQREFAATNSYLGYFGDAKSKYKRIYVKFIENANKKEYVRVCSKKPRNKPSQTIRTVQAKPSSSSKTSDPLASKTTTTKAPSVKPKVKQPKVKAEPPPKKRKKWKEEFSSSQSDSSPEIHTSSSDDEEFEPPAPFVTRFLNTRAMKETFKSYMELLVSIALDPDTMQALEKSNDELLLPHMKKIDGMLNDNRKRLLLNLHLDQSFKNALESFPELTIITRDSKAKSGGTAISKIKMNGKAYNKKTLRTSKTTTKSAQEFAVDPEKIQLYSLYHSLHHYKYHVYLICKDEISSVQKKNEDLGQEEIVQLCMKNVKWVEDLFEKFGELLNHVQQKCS

Each molecule was assayed against YAP1-MYC-BIR2 fusion protein (human) (UniProt P46937) (assay: proximity labelling; BioID2 with YAP1-Myc-Bir2 as bait in H1 hESCs; 25 pg/ml doxycycline 24 h, then 50 mM biotin 16 h; nuclear fraction; streptavidin affinity purification and LC-MS/MS; four conditions (+/- dox, +/- biotin), n = 3).
QSER1 (from UniProt Q2KHR3 1-1735) was tested, and the binding was “binds”. In the case of B1, the binding is reported as “binds”. For B2, the binding was “binds”. With B3 the binding was “binds”. With B4 the binding was “binds”. For B5, the binding was “binds”.
